# Values quoted from earlier work as cited in patent US5534496A, “Methods and compositions to enhance epithelial drug transport” (University of Southern California, priority 1994, dated 1996).
# Conditions: from Betageri and Rogers (1987); cited from earlier work
smiles,measurement,value
CC(C)NCC(O)COc1ccc(CC(N)=O)cc1 (stereo not shown) [atenolol],distribution coefficient (DC),1.46
